Measurements as given in PubChem BioAssay AID2685 (National Center for Advancing Translational Sciences (NCATS), 2010).
Out of some 320,000 compounds screened, about 2,100 (0.66%) were called active. The shares of active, inactive and inconclusive entries below differ from those in the screen. Calls follow the shape of the dose curve; as a rule, active = well fitted inhibition curve with a large enough effect in the signal ratio, with a control signal flat (not every such curve was filed as active); inconclusive = small, poorly fitted or top-dose-only effect, or effect the other way, or a change in a side signal; inactive = flat fitted curve, though single readings scatter; the % refers to the signal ratio. Potencies beside an inconclusive call are fits to weak or partial responses and may not hold up.

assay: qHTS Assay for Lipid Storage Modulators in Drosophila S3 Cells; details: BODIPY lipid droplet fluorescence, 18-24 h, cells fed with added oleic acid; lipid storage change, negative = inhibition: at 46.1 µM (top of the series) unless noted
Summary of the method: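 Drosophila S3 cells loaded with oleic acid (400 uM, as added) and compounds at several concentrations; lipid droplets imaged by 488-nm laser-scanning cytometry, 500–530 nm intensity and object ratio to cell channel. Percent activity normalized to 20 uM Triacsin C.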
% is scaled to controls: 0 for no effect and ±100 for the full control effect; potency is read from the fitted curve at half-maximal effect.

| SMILES | lipid storage change, negative = inhibition | Potency |
| --- | --- | --- |
| CN1C2CCC1CC(NC(=O)c1ccc([N+](=O)[O-])cc1)C2 (stereo unspecified) | inconclusive: -40.9% |  |
| c1ccc(COc2ccc(CNCc3cccnc3)cc2)cc1 | inconclusive: 24.5% |  |
| COC(=O)CSc1nnc([C@H](CC(C)C)NC(=O)OC(C)(C)C)o1 | inconclusive: -27.3% |  |
| O=C(CN1C(=O)/C(=C\C=C\c2ccccc2)SC1=S)Nc1ccc(F)cc1 | inconclusive: -65% |  |
| O=C(COc1cccc2c1CCN(Cc1ccc(Br)cc1)C2=O)N1CCOCC1 | inconclusive: 9.55% |  |
| O=C1[C@H]2[C@@H](c3ccc(F)cc3)N3C(=O)N(c4cccc(Br)c4)C(=O)[C@@]3(Cc3ccccc3)[C@H]2C(=O)N1C1CCCCC1 |  | inconclusive: 25.9 µM [falling, single point] |
| CC(=O)Nc1nnc(SCC(=O)c2ccc3c(c2)Cc2ccccc2-3)s1 | inconclusive: 23.2% |  |
| C/C(=N\NC(=O)c1c(Cl)cnn1C)c1ccc(NC(=O)c2ccncc2)cc1 | inconclusive: 25% |  |
| CC(=O)N1CSCC1C(=O)O (stereo unspecified) | inconclusive: -11.3% |  |
| Cc1c(OCC(=O)N2CCC(C(N)=O)CC2)ccc2c3c(c(=O)oc12)CCC3 | inconclusive: -41.2% |  |
| CCOC(=O)N1CCC(NC(=O)c2ccc(CS(=O)(=O)c3ccccc3C)o2)CC1 | inactive |  |
| CCN(CC)S(=O)(=O)c1cccc2cccnc12 |  | active: 7.31 µM |
| CCC(=O)N(CC(=O)Nc1sc(C)c(C)c1C(N)=O)C1CCCC1 | inconclusive: 0.113% |  |
| O=C(COc1ccc(Br)cc1)N1CCNC1=O | inactive |  |
| O=C1c2ccccc2N2C(=O)c3ccccc3C2N1Cc1ccco1 (stereo unspecified) | inconclusive: 15.3% |  |
| O=C(CN1C(=O)C2C3C=CC(C3)C2C1=O)NCCN1CCCc2ccccc21 (stereo unspecified) | inconclusive: 0.414% |  |
| COc1ccc(NC(=O)CN(C)Cc2cccs2)cc1Cl | inconclusive: 69.3% |  |
| NC(=O)C1CCN(C(=O)c2cc3n(n2)C(C(F)(F)F)CC(c2ccco2)N3)CC1 (stereo unspecified) | inconclusive: -19.5% |  |
| Cc1cc(N/N=C/c2ccccc2)nc(N2CCOCC2)n1 | inconclusive: -8.56% |  |
| C/C(=N/NC(=O)CN1CCN(Cc2ccccc2Cl)CC1)c1cccs1 | inconclusive: 6.15% |  |
| Cc1ccc(NC(=O)c2ccc(S(=O)(=O)N3CCOCC3)cc2)c(C)c1 | inconclusive: -60.9% |  |

| SMILES | lipid storage change, negative = inhibition | Potency |
| --- | --- | --- |
| CCNS(=O)(=O)c1ccc(NC(=O)Nc2ccc3c(c2)OCO3)cc1 | inconclusive: 260% |  |
| CCCC(=O)OCC(=O)c1[nH]c(C)c(C(C)=O)c1C | inactive |  |
| CC(C)(C)NC(=O)C(=O)NN=C1CCCCCC1 | inconclusive: -4.78% |  |
| Cc1c(C(=O)Nc2nccs2)oc2ccc(F)cc12 |  | inconclusive: 0.13 µM [falling, full curve, poor fit] |
| Cc1ccc(Nc2nc(NCCCN3CCOCC3)nc(N)c2[N+](=O)[O-])cc1 | inconclusive: -8.44% |  |
| O=C(CN(Cc1ccccc1)C(=O)CCC(=O)Nc1nccs1)NCC1CCCO1 (stereo unspecified) |  | inconclusive: 4.61 µM [activator, single point] |
| O=C(Nc1cccc(CCc2ccccn2)c1)c1cc(F)c(F)cc1Cl |  | inconclusive: 29.1 µM [activator, single point] |
| CCOc1ccc(NC(=S)NC(=O)c2cnn(CC)c2)c([N+](=O)[O-])c1 | inconclusive: -43.3% |  |
| O=C(c1ccc2snnc2c1)N1CCSCC1 | inconclusive: -10.2% |  |
| O=C(CCSc1ccccc1)NC1CCCCCC1 | inconclusive: -26.4% |  |
| CC(O)(C#CCN1CCCCCC1)c1ccccc1 (stereo unspecified) | inconclusive: -20.3% |  |
| COc1ccc(NC(=O)c2cc(-c3ccc4c(c3)OCO4)on2)cc1OC | inconclusive: -20.3% |  |
| S=c1[nH]nc(CNc2cccc(Cl)c2)o1 | inactive |  |
| CN(C)c1ccc(/C=C/C(=O)c2ccccc2)cc1[N+](=O)[O-] |  | inconclusive: 8.2 µM [falling, partial curve, poor fit] |
| CC[N+](CC)(CC)CC(=O)Nc1ccc(SC(F)F)cc1 | inconclusive: -33.3% |  |
| CCOc1ccc(CCNC(=O)COC(=O)COc2ccc(C#N)cc2)cc1OCC |  | inconclusive: 0.0046 µM [falling, full curve, poor fit] |
| CCC(=O)Nc1nc2ccccc2n1CCN1CCOCC1 | inconclusive: -18% |  |
| O=C(CSCc1nc2scc(-c3cccs3)c2c(=O)[nH]1)Nc1ccccn1 | inconclusive: -41.6% |  |
| O=[N+]([O-])c1ccccc1N/N=C1\CC2CC=CC12 (stereo unspecified) |  | inconclusive: 0.0065 µM [falling, full curve, poor fit] |
| CCN(c1ccc(OC)cc1)S(=O)(=O)c1ccc2c(c1)CC(C)N2C(=O)C1CC1 (stereo unspecified) |  | inconclusive: 29.1 µM [falling, single point] |
| CCOc1ccccc1NC(=O)c1cc(-c2cc(OC)c(OC)c(OC)c2)nc2ccccc12 |  | inconclusive: 6.51 µM [falling, single point] |

| SMILES | lipid storage change, negative = inhibition | Potency |
| --- | --- | --- |
| Cc1ccc2nc3c(cc(C(=O)NCC4CCCO4)n3C)c(=O)n2c1 (stereo unspecified) | inactive |  |
| O=C(CSc1ccc(Cl)cc1)NN=C1CCCCCC1 |  | inconclusive: 0.731 µM [cytotoxic, single point] |
| O=C(Oc1ccccc1)c1c(Cl)cccc1P(=O)(O)O |  | active: 3.66 µM |
| Cc1ccccc1OCC(=O)NCC(C)(C)N1CCOCC1 | inconclusive |  |
| CN(C)S(=O)(=O)Oc1ccccc1C(=O)Nc1ccc(F)cc1F |  | inconclusive: 29.1 µM [rising, single point] |
| CCCCC(CC)CNC(=O)CCCCn1c(=O)[nH]c2ccsc2c1=O (stereo unspecified) | inconclusive: -24.2% |  |
| CC(C)(C(=O)N[C@H](CO)c1ccccc1)C(=O)N[C@H](CO)c1ccccc1 | inconclusive: 20.5% |  |
| O=C(COC(=O)C1CCN(c2ccc(C(F)(F)F)cn2)CC1)NCc1ccc(Cl)cc1Cl | inactive |  |
| CCOC(=O)C(=O)c1csc(NC(=O)COc2ccc(N(C)S(=O)(=O)c3ccc(F)cc3)cc2)n1 |  | inconclusive: 6.51 µM [activator, single point] |
| CC(C)C(=O)N1CCN(c2ccccc2NC(=O)COc2ccc(C3CCCCC3)cc2)CC1 | inconclusive: -42.9% |  |
| Cc1cc(Oc2nnnn2-c2ccccc2)ccc1Cl | inactive |  |
| CN(C)S(=O)(=O)c1ccc(C(=O)OCCn2cnc3c2c(=O)n(C)c(=O)n3C)cc1 | inconclusive: 9.77% |  |
| Cc1ccccc1Nc1nc(NCc2ccco2)c2ccccc2n1 |  | inconclusive: 20.6 µM [cytotoxic, single point] |
| COc1ccc(OCc2nnc(SCC(=O)NCc3ccco3)o2)cc1 |  | inconclusive: 3.66 µM [activator, full curve, poor fit] |
| CC1(c2ccccc2Cl)NC(=O)N(CC(=O)N2CCc3ccccc3C2)C1=O (stereo unspecified) |  | inconclusive: 0.0046 µM [falling, full curve, poor fit] |
| COC(=O)C1C(=O)C(C(=O)c2ccccc2)C(=O)CC1(C)C (stereo unspecified) | inconclusive: 49.1% |  |
| CCOC(=O)c1sc(=NC(=O)c2cccc(Br)c2)n(C)c1C |  | inconclusive: 18.4 µM [activator, single point] |
| CC(C)C(=O)Nc1ccc2c(c1)nc(CCN1CCN(C)CC1)n2C | inconclusive: -1.12% |  |
| CCc1ccccc1NC(=O)COc1ccc(C(=S)N2CCCC2)cc1 | inconclusive: 24.3% |  |
| COc1ccc(CN2CC(=O)N(c3ccc(C)cc3)C2=S)cc1OC | inconclusive: 21.2% |  |
| O=S(=O)(c1ccc(Cl)cc1)c1ccccn1 | inconclusive: 13.4% |  |

Full records, looked up by structure:
CN(C)S(=O)(=O)Oc1ccccc1C(=O)Nc1ccc(F)cc1F as listed: Potency: inconclusive: 29.1 µM [rising, single point]
CC(C)C(=O)Nc1ccc2c(c1)nc(CCN1CCN(C)CC1)n2C as listed: lipid storage change, negative = inhibition: inconclusive: -1.12%
CC(C)C(=O)N1CCN(c2ccccc2NC(=O)COc2ccc(C3CCCCC3)cc2)CC1 as listed: lipid storage change, negative = inhibition: inconclusive: -42.9%
CC(C)(C(=O)N[C@H](CO)c1ccccc1)C(=O)N[C@H](CO)c1ccccc1 as listed: lipid storage change, negative = inhibition: inconclusive: 20.5%

(next part)

| SMILES | lipid storage change, negative = inhibition | Potency |
| --- | --- | --- |
| Cc1ccc(NC2Nc3cc(C)nn3S2)c(C)c1 (stereo unspecified) | inconclusive: 7.5% |  |
| Cc1ccc(C)c(SCC(=O)OCC(=O)Nc2ccc(S(=O)(=O)N3CCOCC3)cc2)c1 | inconclusive: -39.6% |  |
| O=C(Cn1nc(-c2ccccc2)c2ccccc2c1=O)Nc1cccnc1 |  | inconclusive: 0.651 µM [rising, full curve] |
| O=C(Nc1sc2c(c1C(=O)N1CCOCC1)CCCCC2)c1cccnc1 | inconclusive: 19.1% |  |
| CCc1ccc(N2CC(C(=O)OCC(=O)c3c(N)n(CC(C)C)c(=O)n(C)c3=O)CC2=O)cc1 (stereo unspecified) | inconclusive |  |
| CCC(CC)NC(=O)Nc1cccc(C)c1C | inactive |  |
| Cc1ccccc1OCCOCCN1CCCCCC1 | inconclusive: -35.1% |  |
| Cc1ccc(S(=O)(=O)Nc2ccc(NC(=O)/C=C/C(=O)O)cc2)cc1 | inconclusive: -22% |  |
| CCOc1ccc2nc(NC(=O)Cn3cnc4c3c(=O)n(C)c(=O)n4C)sc2c1 | inconclusive: 7.42% |  |
| O=C1CC(c2ccc(S(=O)(=O)NCc3ccncc3)cc2)CN1 (stereo unspecified) |  | inconclusive: 0.116 µM [falling, full curve, poor fit] |
| Cc1noc(-c2ccccc2)c1NC(=O)Nc1ccccc1 | inconclusive: -23.2% |  |
| COc1ccccc1-c1cc(C(=O)N/N=C/c2sccc2C)c2ccccc2n1 | inconclusive: -22.3% |  |
| O=C(C1CC(=O)N(c2ccc(F)cc2)C1)N1CCN(c2ccccc2)CC1 (stereo unspecified) | inconclusive: -3.22% |  |
| CC(C)[C@@H](C(=O)NCC1CCCO1)N1C(=O)N2CCc3c([nH]c4ccccc34)[C@@]2(C)C1=O (stereo partly specified) |  | inconclusive: 23.1 µM [activator, single point] |
| Nc1ccc(-c2c3ccccc3nc3ccccc23)cc1 | inconclusive: 17.7% |  |
| O=C(Cn1c(/C=C/c2ccccc2)nc2ccccc21)Nc1ccc(F)cc1 | inconclusive: 7.14% |  |
| O=C(O)[C@@H]1CCCN1C(=O)c1ccccc1N1C(=O)[C@@H]2Cc3c([nH]c4ccccc34)C(c3cccc(Cl)c3)N2C1=O (stereo partly specified) | inconclusive: 0.152% |  |
| Cc1nnc(SCC(=O)NC(C)c2ccccc2)[nH]c1=O (stereo unspecified) | inconclusive: -107% |  |
